We go through two compounds from patent publication US11985975B1, “N-[(2-{[(furan-ylcarbonyl)carbamothioyl]amino }phenyl)carbamothioyl]furan-2-carboxamide as an eco-friendly insecticidal agent against Spodoptera littoralis (boisd.)” (KING FAISAL UNIVERSITY, priority 2023, dated 2024).

This data set relates to Spodoptera littoralis larvae (second and fourth instars). The data set can be described thus: Insecticidal bioassay screening (castor leaf dip), laboratory strain of cotton leafworm. The settings on record: after 72 hrs of treatment, LDP line. Format: in vivo. The protocol:
Five concentrations (200, 100, 50, 25, 12.5 ppm) were designed for this synthetic compound and the reference Diflubenzuron compound as the dynamic ingredients based on ppm via diluting the commercial formulation.
In this experiment, castor leaves are immersed in each of the previously prepared concentrations of the components for 10 seconds and then left to dry for 60 minutes. Larvae of the second and fourth instars of each checked strain are prepared with treated leaves in gauze-covered glass containers for 72 hrs. An untreated control is made in which leaves are dipped in triton x-100 and distilled water only. Then the preserved leaves were removed & fresh, untreated leaves were provided for 72 hours. Three replicates (10 larvae each) were checked for each concentration. Daily inspection was carried out for all treatments and mortality percentages were recorded 3 days (72 hours) after treatment. The average mortality percentage was corrected employing Abbott's formula. The corrected mortality rate for each of the previously synthesized compounds is statistically calculated according to Finney (1970). Through this rate, the corresponding concentration test lines (LDP lines) are assessed.

The compound `O=C(NC(=S)Nc1ccccc1NC(=S)NC(=O)c1ccco1)c1ccco1` [Compound 2, N-[(2-{[(furan-ylcarbonyl)carbamothioyl]amino}phenyl)carbamothioyl]furan-2-carboxamide] came in with a Slope (2nd instar larvae) of 0.98 ± 0.36 and a Slope (4th instar larvae) of 0.99 ± 0.35.

In the case of `O=C(NC(=O)c1c(F)cccc1F)Nc1ccc(Cl)cc1` [Diflubenzuron, reference compound], the Slope by setting is: (2nd instar larvae) 1.20 ± 0.46; (4th instar larvae) 1.2 ± 0.36.
